Laboratory results as given in patent publication US20240024501A1.
Results are given in words; binding and its absence hold for the method and conditions named. Some entries that bind do so weakly or less than the wild type.

Sequences of proteins named here, by UniProt entry; tags and fusion partners are left off. Residues count along the entry.
UniProt Q15116, residues 25-167: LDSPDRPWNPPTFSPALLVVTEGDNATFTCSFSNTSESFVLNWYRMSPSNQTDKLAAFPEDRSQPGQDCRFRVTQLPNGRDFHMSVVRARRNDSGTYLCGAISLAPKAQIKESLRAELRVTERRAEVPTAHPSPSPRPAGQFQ

Target: PD-1 (human) (UniProt Q15116)
Assay: HTRF

Binder | binding
PD1-IL2-R02-C02 (scFv) scFv: QVQLVQSGAEVKKPGVSVKVSCKASGYTFPRSYIHWVRQAPGQGLEWMGWINPHSGDTYYAQNFQGRVTMTRDTSTSTVYMELSSLRSEDTAVYYCARDTGLGYYYGSGDFDYWGQGTLVTVSSASGGGGSGGGGSGGGGSHASDIQMTQSPSSLSASVGDRVTITCRASQSISRYLNWYQQKPGKAPKLLIYTASSLQSGVPSRFSGSGSGTDFTLTISSLQPEDFATYYCQQANRFPLTFGPGTKVDIK | binds
PD1-IL2-R02-C03 (scFv) scFv: QVQLVQSGAEVKKPGASVKVSCKASGYTFPRYHIHWVRQAPGQGLEWMGMINPSGGTTTYAQKFQGRVTMTRDTSTSTVYMELSSLRSEDTAVYYCARDTGLGYYYGSGDFDYWGQGTLVTVSSASGGGGSGGGGSGGGGSHASDIQMTQSPSSLSASVGDRVTITCRASQSISSWLAWYQQKPGKAPKLLIYAASSLQSGVPSRFSGSGSGTDFTLTISSLQPEDFATYYCQQSHSFPLTFGGGTKVEIK | binds
PD1-IL2-R07-A09 (scFv) scFv: QVQLVQSGAEVKKPGASVKVSCKASGYTFTSYYMHWVRQAPGQGLEWMGIINPSDGSTTYAQSFQGRVTMTRDTSTSTVYMELSSLRSEDTAVYYCASGWDVWGQGTLVTVSSASGGGGSGGGGSGGGGSHASDIVMTQSPDSLAVSLGERATINCKSSQSVFSSANNKNYLAWYQQKPGQPPKLLIYWASTRESGVPDRFSGSGSGTDFTLTISSLQAEDVAVYYCQQYFGTPVTFGGGTKVEIK | binds
